Measured values published in patent US4405354A, “Elimination of odors from waste material” (priority 1980, dated 1983).

Test: Neutralization of ammonium hydroxide added dropwise to 5 grams of active chemical, ammonia odor checked by smell
Details: 5 grams of the active chemical; no odor of ammonia detected

Structure (SMILES)	NH4 OH(grams neutralized) [grams]
CC(=O)O [HOAc, acetic acid]	4.2
O=P([O-])(O)O.[K+] [KH2 PO4]	4.4
O=S(=O)([O-])O.[Na+] [sodium bisulfate]	3.75
O=C(O)CN(CCN(CC(=O)O)CC(=O)O)CC(=O)O [Ethylene diaminetetraacetic Acid]	2.8
O=C1O[C@H]([C@@H](O)CO)C(O)=C1O [Ascorbic Acid]	2.1
O=CO [HCOOH, formic acid]	4.5
O=P([O-])(O)O.[Na+] [NaH2 PO4]	3.5
O=P(O)(O)O [H3 PO4, orthophosphoric acid]	4.5
O=C(O)CC(O)(CC(=O)O)C(=O)O [Citric Acid]	3.5
O=S(=O)(O)O [H2 SO4, sulfuric acid]	4.0
CCC(=O)O [Propionic Acid]	2.7
CC(O)C(=O)O (centres unmarked) [Lactic Acid]	3.0
O=P([O-])([O-])O.[Ca+2] [CaHPO4]	1.9

Test: Pelleted cat litter used by an adult cat until the odor of ammonia could be detected
Details: by weight in animal litter

Structure (SMILES)	concentration exerting an effective control of ammonia odor [%]
O=S(=O)([O-])O.[Na+] [sodium bisulfate]	≥ 0.5
